Reference: the supplement of paper PMC6411743
± gives the standard deviation of the averaged measurements. The list shows a part of the results, in another mix than the full data. Small differences around the control level are noise.

Sequences of proteins named here, by UniProt entry; tags and fusion partners are left off. A change or cut given only in a name is not applied to a line headed by its entry.
UniProt P32455: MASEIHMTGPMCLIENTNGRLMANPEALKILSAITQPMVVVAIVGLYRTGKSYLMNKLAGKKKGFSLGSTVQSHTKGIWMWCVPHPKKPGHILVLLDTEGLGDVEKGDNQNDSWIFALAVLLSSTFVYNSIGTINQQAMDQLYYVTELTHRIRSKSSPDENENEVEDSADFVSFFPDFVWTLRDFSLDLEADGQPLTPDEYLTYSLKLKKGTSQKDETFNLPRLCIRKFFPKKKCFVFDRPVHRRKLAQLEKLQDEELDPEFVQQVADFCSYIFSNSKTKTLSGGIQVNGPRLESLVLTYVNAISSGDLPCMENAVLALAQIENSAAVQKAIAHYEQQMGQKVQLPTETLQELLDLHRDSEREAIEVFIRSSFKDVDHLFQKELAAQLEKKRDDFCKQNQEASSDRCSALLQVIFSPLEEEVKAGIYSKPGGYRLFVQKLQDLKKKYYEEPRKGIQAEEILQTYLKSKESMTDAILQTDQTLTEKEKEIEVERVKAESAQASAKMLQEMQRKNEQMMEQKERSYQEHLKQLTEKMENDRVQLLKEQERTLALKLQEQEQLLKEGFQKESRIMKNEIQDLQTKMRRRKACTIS
UniProt P26639: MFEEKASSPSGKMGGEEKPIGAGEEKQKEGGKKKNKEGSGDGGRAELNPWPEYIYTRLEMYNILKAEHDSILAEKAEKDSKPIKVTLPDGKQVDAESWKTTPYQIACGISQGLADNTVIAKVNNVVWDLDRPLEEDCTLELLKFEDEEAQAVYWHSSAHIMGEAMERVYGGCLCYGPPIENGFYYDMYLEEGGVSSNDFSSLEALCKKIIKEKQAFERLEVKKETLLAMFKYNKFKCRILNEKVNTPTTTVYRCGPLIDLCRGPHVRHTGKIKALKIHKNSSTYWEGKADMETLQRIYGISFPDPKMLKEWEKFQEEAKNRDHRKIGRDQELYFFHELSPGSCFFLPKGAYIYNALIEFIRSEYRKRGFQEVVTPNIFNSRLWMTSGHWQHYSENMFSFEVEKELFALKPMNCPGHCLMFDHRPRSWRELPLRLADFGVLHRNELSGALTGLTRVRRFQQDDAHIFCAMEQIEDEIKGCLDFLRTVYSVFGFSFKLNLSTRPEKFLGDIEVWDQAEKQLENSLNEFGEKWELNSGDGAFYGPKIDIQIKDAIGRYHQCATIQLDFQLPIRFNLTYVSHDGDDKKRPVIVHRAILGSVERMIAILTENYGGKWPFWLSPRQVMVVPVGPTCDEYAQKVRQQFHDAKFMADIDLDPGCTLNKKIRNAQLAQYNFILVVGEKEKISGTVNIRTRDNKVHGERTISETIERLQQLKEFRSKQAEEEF
UniProt P35232: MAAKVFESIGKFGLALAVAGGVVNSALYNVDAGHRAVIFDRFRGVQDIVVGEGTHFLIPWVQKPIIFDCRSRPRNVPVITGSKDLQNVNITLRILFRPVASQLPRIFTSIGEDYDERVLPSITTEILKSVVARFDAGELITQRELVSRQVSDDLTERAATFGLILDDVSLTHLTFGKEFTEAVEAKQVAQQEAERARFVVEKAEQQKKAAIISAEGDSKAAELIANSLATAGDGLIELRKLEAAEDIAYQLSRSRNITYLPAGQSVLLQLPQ
UniProt P26368, whole entry: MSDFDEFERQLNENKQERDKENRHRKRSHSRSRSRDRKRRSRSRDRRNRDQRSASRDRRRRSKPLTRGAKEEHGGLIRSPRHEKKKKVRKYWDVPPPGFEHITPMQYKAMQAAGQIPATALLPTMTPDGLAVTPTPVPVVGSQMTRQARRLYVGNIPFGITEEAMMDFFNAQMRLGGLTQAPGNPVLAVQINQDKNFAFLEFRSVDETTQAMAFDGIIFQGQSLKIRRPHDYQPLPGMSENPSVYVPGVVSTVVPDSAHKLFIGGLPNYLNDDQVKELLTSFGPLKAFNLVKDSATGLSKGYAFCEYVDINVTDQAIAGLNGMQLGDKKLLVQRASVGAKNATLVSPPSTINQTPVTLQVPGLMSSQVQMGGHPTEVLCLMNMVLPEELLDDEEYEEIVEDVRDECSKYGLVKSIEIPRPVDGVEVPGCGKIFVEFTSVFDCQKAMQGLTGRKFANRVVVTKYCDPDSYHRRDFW
UniProt P28161: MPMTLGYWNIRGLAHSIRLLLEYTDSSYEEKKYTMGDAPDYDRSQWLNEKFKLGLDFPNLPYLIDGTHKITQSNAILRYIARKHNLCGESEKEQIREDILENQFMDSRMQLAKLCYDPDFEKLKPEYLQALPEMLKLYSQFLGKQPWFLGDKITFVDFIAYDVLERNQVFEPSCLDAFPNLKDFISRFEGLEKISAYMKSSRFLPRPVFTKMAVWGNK
UniProt P22087: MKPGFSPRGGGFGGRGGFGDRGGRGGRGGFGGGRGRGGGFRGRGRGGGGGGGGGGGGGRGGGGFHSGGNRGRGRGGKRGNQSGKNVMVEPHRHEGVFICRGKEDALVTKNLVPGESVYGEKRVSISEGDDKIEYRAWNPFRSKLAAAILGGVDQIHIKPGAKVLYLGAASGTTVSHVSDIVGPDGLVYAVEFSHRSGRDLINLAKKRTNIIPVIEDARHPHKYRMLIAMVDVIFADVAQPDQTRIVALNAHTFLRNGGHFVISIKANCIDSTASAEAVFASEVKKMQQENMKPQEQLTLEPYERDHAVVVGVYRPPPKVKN
UniProt P23921: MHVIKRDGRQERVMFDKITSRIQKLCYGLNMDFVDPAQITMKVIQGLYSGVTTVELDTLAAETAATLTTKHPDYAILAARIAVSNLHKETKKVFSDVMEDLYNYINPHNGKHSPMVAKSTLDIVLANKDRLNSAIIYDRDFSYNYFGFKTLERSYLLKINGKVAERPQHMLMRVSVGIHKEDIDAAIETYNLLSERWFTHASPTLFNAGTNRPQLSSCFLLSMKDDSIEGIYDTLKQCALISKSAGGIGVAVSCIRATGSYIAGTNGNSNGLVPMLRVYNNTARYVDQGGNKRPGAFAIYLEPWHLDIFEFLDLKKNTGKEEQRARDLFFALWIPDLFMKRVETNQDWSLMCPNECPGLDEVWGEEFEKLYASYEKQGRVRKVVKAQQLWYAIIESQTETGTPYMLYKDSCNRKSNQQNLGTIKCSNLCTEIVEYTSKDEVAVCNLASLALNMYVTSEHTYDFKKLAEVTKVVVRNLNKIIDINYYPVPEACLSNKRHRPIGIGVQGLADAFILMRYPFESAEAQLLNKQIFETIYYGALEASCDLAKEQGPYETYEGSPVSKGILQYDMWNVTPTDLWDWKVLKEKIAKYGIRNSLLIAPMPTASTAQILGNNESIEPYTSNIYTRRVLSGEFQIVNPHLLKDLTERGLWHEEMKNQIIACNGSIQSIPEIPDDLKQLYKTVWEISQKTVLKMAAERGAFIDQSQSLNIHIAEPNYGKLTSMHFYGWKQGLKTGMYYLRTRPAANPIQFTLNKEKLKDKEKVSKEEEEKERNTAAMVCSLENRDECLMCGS
UniProt P21291: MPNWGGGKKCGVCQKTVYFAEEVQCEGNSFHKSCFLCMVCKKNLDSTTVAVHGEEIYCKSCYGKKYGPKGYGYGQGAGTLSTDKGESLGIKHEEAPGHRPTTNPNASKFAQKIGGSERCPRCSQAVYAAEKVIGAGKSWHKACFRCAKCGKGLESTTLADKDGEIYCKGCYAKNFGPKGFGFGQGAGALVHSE
UniProt P18583: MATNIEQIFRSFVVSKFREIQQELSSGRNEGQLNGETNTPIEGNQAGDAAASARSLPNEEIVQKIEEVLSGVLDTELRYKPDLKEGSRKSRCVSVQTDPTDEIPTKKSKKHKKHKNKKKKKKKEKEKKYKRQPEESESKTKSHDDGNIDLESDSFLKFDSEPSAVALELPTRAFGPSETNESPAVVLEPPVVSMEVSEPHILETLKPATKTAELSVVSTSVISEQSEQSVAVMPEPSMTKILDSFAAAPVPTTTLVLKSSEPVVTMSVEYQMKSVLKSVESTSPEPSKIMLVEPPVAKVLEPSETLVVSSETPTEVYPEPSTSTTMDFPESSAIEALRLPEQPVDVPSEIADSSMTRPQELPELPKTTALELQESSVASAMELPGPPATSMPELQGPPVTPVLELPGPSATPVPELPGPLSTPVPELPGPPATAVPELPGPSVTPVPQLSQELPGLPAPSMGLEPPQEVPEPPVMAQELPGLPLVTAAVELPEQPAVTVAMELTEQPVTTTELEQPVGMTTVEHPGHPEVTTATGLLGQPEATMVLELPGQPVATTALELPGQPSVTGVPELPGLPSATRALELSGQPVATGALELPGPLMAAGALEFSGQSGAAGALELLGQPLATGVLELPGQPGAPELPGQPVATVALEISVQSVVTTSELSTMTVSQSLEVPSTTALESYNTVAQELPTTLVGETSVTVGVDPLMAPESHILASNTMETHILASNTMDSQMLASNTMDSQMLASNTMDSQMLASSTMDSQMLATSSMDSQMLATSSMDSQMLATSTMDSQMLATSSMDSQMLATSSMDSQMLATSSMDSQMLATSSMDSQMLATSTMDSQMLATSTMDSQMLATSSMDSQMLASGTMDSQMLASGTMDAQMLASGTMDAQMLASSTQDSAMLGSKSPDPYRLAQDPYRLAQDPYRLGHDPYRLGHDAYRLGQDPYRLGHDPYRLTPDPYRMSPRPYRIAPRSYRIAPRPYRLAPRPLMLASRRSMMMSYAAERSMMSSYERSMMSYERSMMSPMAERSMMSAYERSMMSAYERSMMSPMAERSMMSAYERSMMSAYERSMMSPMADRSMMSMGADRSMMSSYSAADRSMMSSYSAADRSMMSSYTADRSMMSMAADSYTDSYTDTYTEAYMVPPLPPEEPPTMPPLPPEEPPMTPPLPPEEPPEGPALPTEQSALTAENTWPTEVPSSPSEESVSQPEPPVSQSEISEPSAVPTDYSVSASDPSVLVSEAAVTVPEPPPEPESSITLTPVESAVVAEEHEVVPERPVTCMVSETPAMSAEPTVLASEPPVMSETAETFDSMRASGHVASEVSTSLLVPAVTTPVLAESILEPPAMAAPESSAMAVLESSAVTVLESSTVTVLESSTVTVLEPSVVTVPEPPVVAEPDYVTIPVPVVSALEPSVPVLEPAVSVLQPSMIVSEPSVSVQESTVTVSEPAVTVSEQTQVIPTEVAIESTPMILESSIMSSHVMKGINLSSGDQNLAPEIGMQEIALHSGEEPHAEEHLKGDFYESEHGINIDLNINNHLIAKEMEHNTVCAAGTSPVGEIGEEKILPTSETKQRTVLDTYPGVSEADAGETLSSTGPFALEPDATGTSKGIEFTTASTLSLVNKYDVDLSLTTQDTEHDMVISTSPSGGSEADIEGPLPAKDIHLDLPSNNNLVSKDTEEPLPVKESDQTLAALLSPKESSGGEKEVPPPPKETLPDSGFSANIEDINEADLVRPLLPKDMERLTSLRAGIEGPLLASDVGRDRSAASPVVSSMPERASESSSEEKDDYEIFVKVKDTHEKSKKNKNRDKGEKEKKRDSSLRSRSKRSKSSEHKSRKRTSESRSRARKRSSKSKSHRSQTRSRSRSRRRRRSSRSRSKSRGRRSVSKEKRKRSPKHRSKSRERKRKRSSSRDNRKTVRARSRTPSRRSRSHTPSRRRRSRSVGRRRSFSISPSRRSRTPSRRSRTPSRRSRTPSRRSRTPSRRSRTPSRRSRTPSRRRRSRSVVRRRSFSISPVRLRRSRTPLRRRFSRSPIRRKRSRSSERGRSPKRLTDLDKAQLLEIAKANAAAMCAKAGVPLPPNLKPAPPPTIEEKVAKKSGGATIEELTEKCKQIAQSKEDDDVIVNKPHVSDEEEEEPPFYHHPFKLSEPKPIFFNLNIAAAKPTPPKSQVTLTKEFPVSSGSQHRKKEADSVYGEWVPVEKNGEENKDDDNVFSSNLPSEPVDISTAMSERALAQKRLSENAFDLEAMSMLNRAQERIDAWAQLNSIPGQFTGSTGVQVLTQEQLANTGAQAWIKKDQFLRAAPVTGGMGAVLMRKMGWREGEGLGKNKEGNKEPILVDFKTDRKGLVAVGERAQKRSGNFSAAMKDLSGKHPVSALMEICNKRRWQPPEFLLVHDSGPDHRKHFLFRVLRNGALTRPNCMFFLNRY
UniProt P31323, whole entry: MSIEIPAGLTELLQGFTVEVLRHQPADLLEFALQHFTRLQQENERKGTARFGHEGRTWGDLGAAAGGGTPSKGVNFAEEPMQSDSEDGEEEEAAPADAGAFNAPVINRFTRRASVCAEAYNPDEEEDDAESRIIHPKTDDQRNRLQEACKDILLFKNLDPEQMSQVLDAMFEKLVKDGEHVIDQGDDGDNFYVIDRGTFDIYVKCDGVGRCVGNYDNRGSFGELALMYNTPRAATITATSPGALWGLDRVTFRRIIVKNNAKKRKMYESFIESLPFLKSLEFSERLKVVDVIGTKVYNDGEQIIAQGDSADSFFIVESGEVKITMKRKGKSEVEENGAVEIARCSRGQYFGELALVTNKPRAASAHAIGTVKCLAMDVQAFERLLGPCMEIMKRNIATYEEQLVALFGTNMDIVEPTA

Compound: Nc1ncnc2c1ncn2[C@@H]1O[C@H](COP(=O)(O)OP(=O)(O)OP(=O)(O)O)[C@@H](O)[C@H]1O [adenosine triphosphate]
Assay: NP40-soluble protein abundance relative to vehicle (solubility fold change) (ratio); higher = more soluble protein in presence of ATP
Procedure, shortened: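 In three independent experiments, Jurkat crude lysate made by Dounce homogenisation was treated for 10 min at room temperature and then 3 min at 37 °C with eight concentrations ranging from 0.1 to 10 mM. It was then solubilised with 0.8% NP40 plus benzonase for 60 min at 4 °C and ultracentrifuged. The supernatant was TMT-labelled for LC-MS/MS, and each value is the fold change against the detergent-processed vehicle for the same replicate, using vsn-normalised intensities.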

| Target | NP40-soluble protein abundance (concentration: 0.1mM) | NP40-soluble protein abundance (concentration: 0.5mM) | NP40-soluble protein abundance (concentration: 1mM) | NP40-soluble protein abundance (concentration: 2mM) | NP40-soluble protein abundance (concentration: 4mM) | NP40-soluble protein abundance (concentration: 6mM) | NP40-soluble protein abundance (concentration: 8mM) | NP40-soluble protein abundance (concentration: 10mM) |
| --- | --- | --- | --- | --- | --- | --- | --- | --- |
| GBP1 (UniProt P32455) | 0.995 ± 0.012 | 0.999 ± 0.068 | 0.968 ± 0.053 | 0.96 ± 0.0051 | 0.945 ± 0.011 | 0.979 ± 0.015 | 0.922 ± 0.018 | 0.936 ± 0.03 |
| SLC7A1 (UniProt P30825) | 0.969 ± 0.016 | 0.944 ± 0.063 | – | – | – | – | – | – |
| UniProt P23634-6 | 1.08 ± 0.12 | 1.06 ± 0.068 | – | – | – | – | – | – |
| UniProt P26639 | 1.05 ± 0.092 | 1.05 ± 0.07 | 1 ± 0.1 | 0.988 ± 0.075 | 0.95 ± 0.078 | 0.928 ± 0.11 | 0.989 ± 0.054 | 0.949 ± 0.042 |
| SOAT1 (UniProt P35610) | 1.09 ± 0.024 | 1.04 ± 0.072 | 1.02 ± 0.042 | 1 ± 0.028 | 0.999 ± 0.055 | 0.97 ± 0.029 | 1.03 ± 0.019 | 0.971 ± 0.041 |
| UniProt P21675 and related entries | 1.05 ± 0.059 | 1.14 ± 0.081 | 1.11 ± 0.067 | 1.11 ± 0.048 | 1.11 ± 0.066 | 1.15 ± 0.14 | 1.2 ± 0.079 | 1.19 ± 0.091 |
| UniProt P20701 and related entries | 0.9678 ± 0.0053 | 0.958 ± 0.015 | – | – | – | – | – | – |
| PHB (UniProt P35232) | 0.97 ± 0.042 | 0.981 ± 0.041 | – | – | – | – | – | – |
| UniProt P17812 | 1.03 ± 0.082 | 1.02 ± 0.057 | – | – | – | – | – | – |
| UniProt P26368 and related entries | 1.22 ± 0.058 | 1.92 ± 0.096 | 1.96 ± 0.078 | 1.99 ± 0.078 | 2.01 ± 0.076 | 2.06 ± 0.032 | 2.11 ± 0.079 | 2.09 ± 0.12 |
| NKTR (UniProt P30414) | 1.06 ± 0.11 | 1.4 ± 0.094 | 1.53 ± 0.25 | 1.63 ± 0.19 | 1.68 ± 0.23 | 1.83 ± 0.22 | 1.75 ± 0.19 | 1.75 ± 0.22 |
| GCSH (UniProt P23434) | 0.972 ± 0.058 | 0.96 ± 0.042 | 0.985 ± 0.048 | 0.971 ± 0.024 | 0.986 ± 0.051 | 1.03 ± 0.05 | 0.915 ± 0.051 | 0.927 ± 0.092 |
| MAN1A1 (UniProt P33908) | 0.9553 ± 0.0086 | 0.992 ± 0.019 | – | – | – | – | – | – |
| CD53 (UniProt P19397) | 0.84 ± 0.11 | 0.784 ± 0.13 | 0.898 ± 0.042 | 0.833 ± 0.05 | 0.85 ± 0.06 | 0.832 ± 0.049 | 0.823 ± 0.07 | 0.791 ± 0.093 |
| UniProt P28908 and related entries | 1.06 ± 0.078 | 0.973 ± 0.068 | 0.986 ± 0.073 | 0.999 ± 0.0037 | 1.08 ± 0.13 | 0.992 ± 0.073 | 0.951 ± 0.041 | 0.964 ± 0.026 |
| GSTM2 (UniProt P28161) | 0.974 ± 0.095 | 0.992 ± 0.045 | 0.96 ± 0.07 | 0.952 ± 0.054 | 0.886 ± 0.043 | 0.889 ± 0.035 | 0.911 ± 0.058 | 0.861 ± 0.056 |
| FBL (UniProt P22087) | 1.07 ± 0.092 | 1.031 ± 0.0065 | 1.11 ± 0.075 | 1.13 ± 0.058 | 1.25 ± 0.047 | 1.544 ± 0.0074 | 1.93 ± 0.025 | 2.51 ± 0.15 |
| RRM1 (UniProt P23921) | 1.04 ± 0.092 | 1.01 ± 0.074 | – | – | – | – | – | – |
| CSRP1 (UniProt P21291) | 1.01 ± 0.016 | 1.02 ± 0.016 | – | – | – | – | – | – |
| UniProt P18583 and related entries | 1.05 ± 0.056 | 1.21 ± 0.046 | 1.28 ± 0.057 | 1.3 ± 0.075 | 1.36 ± 0.099 | 1.49 ± 0.14 | 1.45 ± 0.095 | 1.55 ± 0.13 |
| PRKAR2B (UniProt P31323) | 1.03 ± 0.021 | 1.04 ± 0.052 | – | – | – | – | – | – |

4 successive records from above:

| Target | NP40-soluble protein abundance (concentration: 0.1mM) | NP40-soluble protein abundance (concentration: 0.5mM) | NP40-soluble protein abundance (concentration: 1mM) | NP40-soluble protein abundance (concentration: 2mM) | NP40-soluble protein abundance (concentration: 4mM) | NP40-soluble protein abundance (concentration: 6mM) | NP40-soluble protein abundance (concentration: 8mM) | NP40-soluble protein abundance (concentration: 10mM) |
| --- | --- | --- | --- | --- | --- | --- | --- | --- |
| UniProt P20701 and related entries | 0.9678 ± 0.0053 | 0.958 ± 0.015 | – | – | – | – | – | – |
| PHB (UniProt P35232) | 0.97 ± 0.042 | 0.981 ± 0.041 | – | – | – | – | – | – |
| UniProt P17812 | 1.03 ± 0.082 | 1.02 ± 0.057 | – | – | – | – | – | – |
| UniProt P26368 and related entries | 1.22 ± 0.058 | 1.92 ± 0.096 | 1.96 ± 0.078 | 1.99 ± 0.078 | 2.01 ± 0.076 | 2.06 ± 0.032 | 2.11 ± 0.079 | 2.09 ± 0.12 |
